A: 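Methionyl-tRNA synthetase (putative), Leishmania donovani (UniProt E9BF75). Primary screen of methionyl-tRNA synthetase; the read-out is not stated. The test concentration is not given. The values are filed as inhibition. Size under these conditions: about 68,000 compounds, about 24 of them at 50% or above in at least one test.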
B: 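Assay on Mycobacterium tuberculosis, filed only as a heat shock assay from Cornell; the read-out is not stated. The concentration is filed as 10 mM, unlikely as a test dose, so the dose is not known. The record gives no direction; compounds that gave an IC50 in retests scored well above the rest, so higher reads as stronger inhibition. About 69,000 compounds were tested under these conditions; 1.4% (about 930) showed 50% or more at least once.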

Sequences of proteins named here, by UniProt entry; tags and fusion partners are left off.
UniProt E9BF75, entry or part of it: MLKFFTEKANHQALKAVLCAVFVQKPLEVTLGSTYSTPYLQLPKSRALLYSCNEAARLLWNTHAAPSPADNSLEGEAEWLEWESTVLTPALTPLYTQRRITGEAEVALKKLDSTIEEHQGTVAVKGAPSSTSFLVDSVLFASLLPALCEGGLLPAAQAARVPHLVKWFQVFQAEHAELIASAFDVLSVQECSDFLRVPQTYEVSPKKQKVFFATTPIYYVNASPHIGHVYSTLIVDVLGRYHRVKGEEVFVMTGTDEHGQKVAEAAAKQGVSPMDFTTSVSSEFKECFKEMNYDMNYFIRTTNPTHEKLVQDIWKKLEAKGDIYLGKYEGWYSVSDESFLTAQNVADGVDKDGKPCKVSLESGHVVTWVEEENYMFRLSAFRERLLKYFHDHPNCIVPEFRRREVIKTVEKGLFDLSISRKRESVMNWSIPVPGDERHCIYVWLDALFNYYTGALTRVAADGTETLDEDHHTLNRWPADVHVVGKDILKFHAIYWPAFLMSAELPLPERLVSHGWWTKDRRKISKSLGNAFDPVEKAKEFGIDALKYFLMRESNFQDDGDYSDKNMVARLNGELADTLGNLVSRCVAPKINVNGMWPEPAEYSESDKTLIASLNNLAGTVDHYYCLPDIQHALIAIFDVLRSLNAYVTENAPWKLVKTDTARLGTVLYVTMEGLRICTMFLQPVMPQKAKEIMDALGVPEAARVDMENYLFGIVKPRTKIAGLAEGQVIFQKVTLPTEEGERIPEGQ

Results are percentages, as filed. The record does not define 0% and 100%; most values in the screen are far below 50% and negative numbers occur (in some assays of this library far below -100). The compounds are a random part of those screened. A dash means the value is not listed here; it may have been measured.

Compound	A	B
CS(=O)(=O)N1CCO[C@@H]2CN(C(=O)COC3CCCC3)C[C@@H]2C1	-0.3484	-
CC(C)c1noc(CCC(=O)N(CC2CCOC2)C2CC2)n1 (stereo not given)	5.966	24.65
O=C(O)c1ccc(C2CCCN(C(=O)c3ccc[nH]3)C2)cc1 (stereo not given)	23.53	-17.52
[H][C@]12CCN(c3ncccn3)[C@@]1([H])CC[C@@H](COCc1ccccn1)O2	-	-9.274
CCc1ccccc1OCCN1CCC(NS(C)(=O)=O)CC1	14.24	11.05
CC(C)c1nn(C)c(N(C)C)c1CNC1CCN(CC2CC2)CC1	10.18	-6.448
CN(C(=O)C1CC(=O)N(CCc2ccccc2)C1)c1nccs1 (stereo not given)	3.896	-13.8
COc1cc(CCNC(=O)NCCC2CCCO2)ccc1C (stereo not given)	16.39	-16.09
Cc1cc(C)n(CC2CCCN2CCc2ccncc2)n1 (stereo not given)	9.202	4.805
Cc1cccc(C)c1OCCNC(=O)CN1CCN(C)CC1C (stereo not given)	2.857	-2.461
CC(C)(C)c1ncc2c(n1)CN(c1cc(NCCO)nc(N)n1)C2	16.53	-0.7871
CCCc1nnc(NC2CCN(C3CCCC3)CC2)o1	14.44	16.56
CSCC(C)N(C)S(=O)(=O)c1ccc(Cl)cc1C#N (stereo not given)	10.43	-1.871
COC[C@@]12CCO[C@@H]1CCN(C(=O)c1ccc(F)c(F)c1)C2	16.25	-
COc1ccc2c(c1)CC(C1CCOCC1)N(C(=O)c1cnccn1)C2 (stereo not given)	11.21	6.234
O=C(NC1CC1)N1CCc2ncc(CN3CCOCC3)n2CC1.O=C(O)C(F)(F)F	-	-2.249
CNC(=O)COc1ccc(CNCc2c(C)nn(C)c2N(C)C)cc1	22.25	-12.69
OC1(CN2CCCC2)CCCN(c2ncnc3[nH]cnc23)C1 (stereo not given)	14.71	-1.544
CN(CCc1cccs1)C(=O)Nc1cnn(CC2CCCO2)c1 (stereo not given)	7.107	12.83
COc1ccc(CN2C[C@@H](N(C)Cc3ccco3)[C@H]3OCCC[C@H]32)cc1	19.86	-
CN(C)c1cc(C(=O)NCC2(c3ccc(F)cc3)CC2)ccn1	8.901	8.038
Cc1nc(C)n(C2CCCN(C(=O)c3c[nH]c(C(C)C)n3)C2)n1 (stereo not given)	7.669	12.25
Cc1oncc1C(=O)NCC1(O)CCc2ccccc2C1 (stereo not given)	10.99	15.55
Cc1nn(C)c(N(C)C)c1CNCc1cccnc1	4.089	-19.93
O=C1NCCCC1NC(=O)C1(c2cccc(Cl)c2)CCC1 (stereo not given)	6.383	0.8202
CN1Cc2[nH]nc(COCC3CC3)c2C1	8.333	-
CCCn1cc(-c2cc(-c3cc(CC)n[nH]3)c(C#N)c(N)n2)c(C)n1	15.35	41.25
CC(C)CN1CCC2(CC1)C(=O)Nc1ccc(C(=O)N(C)C)cc12	17.47	-
Cc1nc([C@@H]2C[C@@H]3CCN(C(=O)c4occc4C)C[C@H]3O2)no1	3.766	-
CN(C)c1ncc2c(n1)C1(CCN(CC3CC3)C1)COC2 (stereo not given)	15.5	-
COCC1CN(C(=O)c2ccoc2C)Cc2nccn2C1 (stereo not given)	4.53	-7.146
COCCOc1ncccc1C(=O)N(C)c1nccs1	17.63	2.315
COCCC(=O)NCc1ccc(-c2ccccc2C(=O)O)nc1	19.18	-11.35
CN(CC(=O)NCC(O)c1cccc(F)c1)C(=O)OC(C)(C)C (stereo not given)	22.7	-5.951
Cn1ccc2c(C(=O)N3CCC(C(N)=O)CC3)cccc21	12.03	-5.995
Cc1c[nH]c(CN(C)c2nc(C3CCCC3)nc3c2cnn3C)n1	14.16	22.55
Cc1cccc(CN2CCC3(CCCN(C(=O)c4ccsc4)C3)C2=O)n1.O=C(O)C(F)(F)F (stereo not given)	-	0.4668
CCNc1nnc(SCc2nnc(C(C)(C)C)o2)s1	9.524	5.705
O=C(O)C(F)(F)F.O=C1COC2(CCN(Cc3cccs3)CC2)CN1c1ccccc1	-	-22.37
CCN(CC)S(=O)(=O)CCNC(=O)N(C)C(C)c1ccccn1 (stereo not given)	10.96	-1.567
CC(NC(=O)NCCn1ccnc1)c1ccc2c(c1)CCC(=O)N2 (stereo not given)	9.296	-12.75
CC(=O)N1N=C(c2ccco2)OC1C(=O)NCC(C)C (stereo not given)	16.39	33.86
CCN1CC(C(=O)NC(C)(C)CC)CC1=O (stereo not given)	9.253	17.58
O=C1COC2(CCN(c3cccc(F)c3)CC2)CN1Cc1ccccn1	10.03	-
CCS(=O)(=O)Nc1cnn(Cc2cccc(Cl)c2)c1	17.74	69.75
COC(=O)NCC(=O)N1CCC(c2cc3ccccc3[nH]2)CC1	8.683	-7.328
O=C(c1ccnc(-n2cnnc2)c1)N1CCCC2(CCOC2)C1 (stereo not given)	19.76	-28.81
CC[C@@H]1N(Cc2ccsc2)CCC[C@]12CCC(=O)N2CCOC	8.418	-
OCCn1cc(CN2CCN(CCOc3ccc(F)cc3)CC2)cn1	18.1	-28.25

Once more, the final 3:

Compound	A	B
O=C(c1ccnc(-n2cnnc2)c1)N1CCCC2(CCOC2)C1 (stereo not given)	19.76	-28.81
CC[C@@H]1N(Cc2ccsc2)CCC[C@]12CCC(=O)N2CCOC	8.418	-
OCCn1cc(CN2CCN(CCOc3ccc(F)cc3)CC2)cn1	18.1	-28.25

Data taken from ChEMBL document CHEMBL3988442, “University of Dundee, Small-Polar-MMV Screening Library” (2021).